We go through one substance from paper PMC9599717 (Biomolecules, 2022).

This data set is described as follows: peptide made by a vendor. To be noted: whole synthesis.

In the case of 11-GKSARDVFTKGYGFGL-26- RRMKWKK, the “purity (crude or final not stated)” value was 95.24%.
